Changes are numbered by the printed parent chain. Results are given in words; binding and its absence hold for the method and conditions named. Binding seen in cells or lysates may run through a third protein. Some results given as binding are weak or reduced against the parent protein; the word gives no strength. For some assays here: Tags and fused reporters may be left off the sequences shown.

Experiment in all cases: co-IP
For assay [1], the target named is T1, yKu70 F576AY577A (expressed in yeast) (S. cerevisiae) (UniProt P32807).
T1 sequence: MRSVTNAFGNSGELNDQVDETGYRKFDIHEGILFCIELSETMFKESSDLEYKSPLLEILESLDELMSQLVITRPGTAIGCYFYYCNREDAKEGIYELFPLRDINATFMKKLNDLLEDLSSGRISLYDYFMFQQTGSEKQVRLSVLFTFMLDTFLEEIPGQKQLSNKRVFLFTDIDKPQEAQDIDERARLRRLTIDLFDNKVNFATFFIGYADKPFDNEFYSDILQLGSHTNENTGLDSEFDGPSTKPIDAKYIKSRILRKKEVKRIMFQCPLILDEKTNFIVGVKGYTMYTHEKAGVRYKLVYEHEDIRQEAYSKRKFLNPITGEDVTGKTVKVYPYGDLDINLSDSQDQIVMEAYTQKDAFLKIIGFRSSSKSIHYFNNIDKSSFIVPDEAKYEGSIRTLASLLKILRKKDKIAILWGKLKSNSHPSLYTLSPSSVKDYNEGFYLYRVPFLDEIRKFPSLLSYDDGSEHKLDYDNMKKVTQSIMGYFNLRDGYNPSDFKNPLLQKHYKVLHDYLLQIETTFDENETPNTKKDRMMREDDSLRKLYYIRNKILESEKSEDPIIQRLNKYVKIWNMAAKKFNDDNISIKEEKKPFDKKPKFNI

The target in assay [2] is T2, yKu70 F580A (expressed in yeast) (S. cerevisiae) (UniProt P32807).
T2 sequence: T1 sequence with A576F, A577Y, F580A

Assay [3] concerns the target T3, yKu70 3A mutant (expressed in yeast) (S. cerevisiae) (UniProt P32807).
T3 sequence: T1 sequence with F580A

Assay [4] deals with T4, yKu70 4A mutant (expressed in yeast) (S. cerevisiae) (UniProt P32807).
T4 sequence: T1 sequence with Y569A, F580A

The target of assay [5] is T5, yKu70 Y569A (expressed in yeast) (S. cerevisiae) (UniProt P32807).
T5 sequence: T1 sequence with Y569A, A576F, A577Y

Assay [6] concerns the target T6, Xrs2 (epitope-tagged, expressed in yeast) (S. cerevisiae) (UniProt P33301).
T6 sequence: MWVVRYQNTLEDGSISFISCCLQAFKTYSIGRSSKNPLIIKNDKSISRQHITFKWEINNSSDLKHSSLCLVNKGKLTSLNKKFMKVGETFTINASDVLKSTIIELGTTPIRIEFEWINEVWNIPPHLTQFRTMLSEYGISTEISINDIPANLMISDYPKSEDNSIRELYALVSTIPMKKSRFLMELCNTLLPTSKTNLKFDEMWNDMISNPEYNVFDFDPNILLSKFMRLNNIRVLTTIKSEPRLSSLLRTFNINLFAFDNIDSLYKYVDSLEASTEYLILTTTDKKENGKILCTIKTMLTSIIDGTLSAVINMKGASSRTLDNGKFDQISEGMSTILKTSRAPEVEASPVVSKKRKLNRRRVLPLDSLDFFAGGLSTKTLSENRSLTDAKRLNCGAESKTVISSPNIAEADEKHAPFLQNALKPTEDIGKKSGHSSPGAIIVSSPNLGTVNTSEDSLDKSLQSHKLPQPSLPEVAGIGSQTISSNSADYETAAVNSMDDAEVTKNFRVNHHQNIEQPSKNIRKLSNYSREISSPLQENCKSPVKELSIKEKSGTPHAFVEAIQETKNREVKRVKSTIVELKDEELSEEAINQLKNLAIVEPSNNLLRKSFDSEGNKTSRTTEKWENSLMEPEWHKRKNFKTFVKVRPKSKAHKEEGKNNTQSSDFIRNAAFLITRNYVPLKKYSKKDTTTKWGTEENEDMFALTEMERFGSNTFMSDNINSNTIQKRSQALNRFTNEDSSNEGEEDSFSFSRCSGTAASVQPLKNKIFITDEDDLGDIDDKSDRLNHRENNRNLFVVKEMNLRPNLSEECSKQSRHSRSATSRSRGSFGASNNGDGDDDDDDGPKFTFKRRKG

For the substance “histone H3 dimethylated at Lys36 (yeast, endogenous) (from UniProt P61830 1-136)”, the binding result in assay [1], in assay [2], in assay [3], in assay [4] and in assay [5] was “no binding” throughout.
In the case of “histone H3 (yeast, endogenous) (from UniProt P61830 1-136)”, the binding entry is reported as “no binding” in assay [1]; “no binding” in assay [2]; “no binding” in assay [3]; “no binding” in assay [4]; “no binding” in assay [5]; “binds” in assay [6].

For the origin of these results see publication doi:10.1101/2023.10.18.562911.
